Measurements taken from the supplement of paper PMC10849652.
This is one part of the list.

Protein sequences, listed by entry. Tags and fused reporters are not part of them. Lines headed by an entry give the natural chain unless they say otherwise; changes in a name come on top.
UniProt O00767: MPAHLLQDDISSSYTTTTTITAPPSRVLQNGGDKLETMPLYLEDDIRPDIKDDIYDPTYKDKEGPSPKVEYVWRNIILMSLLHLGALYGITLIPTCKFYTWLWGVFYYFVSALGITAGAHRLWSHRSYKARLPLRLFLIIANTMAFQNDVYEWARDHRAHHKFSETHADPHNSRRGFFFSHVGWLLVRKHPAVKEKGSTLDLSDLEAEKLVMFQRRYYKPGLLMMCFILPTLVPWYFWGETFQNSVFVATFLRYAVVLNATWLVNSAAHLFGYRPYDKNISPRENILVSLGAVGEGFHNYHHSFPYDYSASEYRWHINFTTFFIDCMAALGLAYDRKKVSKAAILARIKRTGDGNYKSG
UniProt Q96I15: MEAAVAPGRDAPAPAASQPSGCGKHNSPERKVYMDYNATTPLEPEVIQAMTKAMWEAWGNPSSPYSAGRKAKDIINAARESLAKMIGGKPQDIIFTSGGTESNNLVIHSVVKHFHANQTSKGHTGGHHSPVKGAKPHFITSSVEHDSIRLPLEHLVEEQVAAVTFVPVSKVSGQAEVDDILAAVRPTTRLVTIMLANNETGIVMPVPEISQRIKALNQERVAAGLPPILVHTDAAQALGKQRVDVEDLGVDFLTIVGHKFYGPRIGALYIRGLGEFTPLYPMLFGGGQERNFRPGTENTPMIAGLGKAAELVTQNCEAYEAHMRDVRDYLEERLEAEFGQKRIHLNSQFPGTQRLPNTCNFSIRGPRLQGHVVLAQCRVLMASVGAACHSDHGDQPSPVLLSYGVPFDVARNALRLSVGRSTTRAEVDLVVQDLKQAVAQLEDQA
UniProt Q5PRF9: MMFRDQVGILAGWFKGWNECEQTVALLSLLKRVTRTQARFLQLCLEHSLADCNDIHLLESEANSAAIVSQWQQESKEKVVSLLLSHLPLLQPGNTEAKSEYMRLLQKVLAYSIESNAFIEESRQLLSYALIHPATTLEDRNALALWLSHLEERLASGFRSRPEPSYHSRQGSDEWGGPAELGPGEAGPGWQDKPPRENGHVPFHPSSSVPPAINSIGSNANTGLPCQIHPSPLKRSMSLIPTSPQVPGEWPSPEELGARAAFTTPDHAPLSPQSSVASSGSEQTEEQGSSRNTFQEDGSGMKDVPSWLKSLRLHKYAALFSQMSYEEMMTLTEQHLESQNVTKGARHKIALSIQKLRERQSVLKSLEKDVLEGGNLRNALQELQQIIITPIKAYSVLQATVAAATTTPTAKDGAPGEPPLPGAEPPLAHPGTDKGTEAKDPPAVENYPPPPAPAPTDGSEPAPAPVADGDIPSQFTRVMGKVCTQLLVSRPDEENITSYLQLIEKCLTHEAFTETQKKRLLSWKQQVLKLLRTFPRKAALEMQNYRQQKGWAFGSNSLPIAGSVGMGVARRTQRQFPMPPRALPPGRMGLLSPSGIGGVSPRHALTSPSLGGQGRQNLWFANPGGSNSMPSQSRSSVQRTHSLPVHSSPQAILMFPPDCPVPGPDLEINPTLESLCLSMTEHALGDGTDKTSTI
UniProt P60468, whole entry, looked up: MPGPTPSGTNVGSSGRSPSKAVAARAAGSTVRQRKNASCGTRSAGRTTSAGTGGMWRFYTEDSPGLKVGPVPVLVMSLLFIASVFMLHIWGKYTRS
UniProt Q8WU76: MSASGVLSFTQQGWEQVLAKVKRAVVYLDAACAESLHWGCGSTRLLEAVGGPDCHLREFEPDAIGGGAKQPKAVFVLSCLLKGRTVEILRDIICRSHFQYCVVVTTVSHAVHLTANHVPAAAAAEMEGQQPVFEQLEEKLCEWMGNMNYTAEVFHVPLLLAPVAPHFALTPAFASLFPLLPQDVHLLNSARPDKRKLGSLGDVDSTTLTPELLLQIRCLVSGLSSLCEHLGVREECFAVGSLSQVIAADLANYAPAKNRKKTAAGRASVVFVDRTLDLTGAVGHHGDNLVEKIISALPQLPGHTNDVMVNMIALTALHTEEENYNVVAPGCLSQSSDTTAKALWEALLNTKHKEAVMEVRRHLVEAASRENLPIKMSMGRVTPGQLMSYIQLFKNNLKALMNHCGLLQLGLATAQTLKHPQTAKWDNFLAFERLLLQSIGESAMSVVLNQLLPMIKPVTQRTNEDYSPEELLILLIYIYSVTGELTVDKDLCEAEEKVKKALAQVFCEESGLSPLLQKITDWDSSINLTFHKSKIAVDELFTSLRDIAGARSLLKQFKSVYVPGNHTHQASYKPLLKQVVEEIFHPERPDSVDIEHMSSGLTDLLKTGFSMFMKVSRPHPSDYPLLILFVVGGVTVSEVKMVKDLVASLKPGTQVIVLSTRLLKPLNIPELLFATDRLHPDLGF
UniProt Q9NVA2: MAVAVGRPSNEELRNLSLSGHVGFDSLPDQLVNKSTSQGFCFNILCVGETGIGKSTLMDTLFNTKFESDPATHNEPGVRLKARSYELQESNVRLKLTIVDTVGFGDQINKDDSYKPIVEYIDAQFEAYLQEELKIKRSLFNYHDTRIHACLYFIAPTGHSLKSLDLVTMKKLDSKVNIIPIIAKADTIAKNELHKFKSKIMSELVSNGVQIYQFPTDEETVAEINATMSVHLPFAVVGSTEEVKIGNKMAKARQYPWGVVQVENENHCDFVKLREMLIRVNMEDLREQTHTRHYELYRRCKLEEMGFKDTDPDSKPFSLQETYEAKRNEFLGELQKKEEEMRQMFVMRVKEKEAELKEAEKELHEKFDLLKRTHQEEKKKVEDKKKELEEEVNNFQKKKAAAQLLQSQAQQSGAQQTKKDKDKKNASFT
UniProt Q13228: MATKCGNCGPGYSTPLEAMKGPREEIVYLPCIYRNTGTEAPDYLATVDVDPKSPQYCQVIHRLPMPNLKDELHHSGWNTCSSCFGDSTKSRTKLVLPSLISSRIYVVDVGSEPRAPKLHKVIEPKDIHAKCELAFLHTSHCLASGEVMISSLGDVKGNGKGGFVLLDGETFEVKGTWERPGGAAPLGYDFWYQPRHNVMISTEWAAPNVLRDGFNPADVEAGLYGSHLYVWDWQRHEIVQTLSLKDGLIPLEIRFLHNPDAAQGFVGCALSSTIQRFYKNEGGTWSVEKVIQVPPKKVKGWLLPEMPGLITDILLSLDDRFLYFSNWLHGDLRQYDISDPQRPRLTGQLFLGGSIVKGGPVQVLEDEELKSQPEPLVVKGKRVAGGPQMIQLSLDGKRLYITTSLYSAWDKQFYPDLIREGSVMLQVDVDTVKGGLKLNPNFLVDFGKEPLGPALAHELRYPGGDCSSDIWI
UniProt A3KN83: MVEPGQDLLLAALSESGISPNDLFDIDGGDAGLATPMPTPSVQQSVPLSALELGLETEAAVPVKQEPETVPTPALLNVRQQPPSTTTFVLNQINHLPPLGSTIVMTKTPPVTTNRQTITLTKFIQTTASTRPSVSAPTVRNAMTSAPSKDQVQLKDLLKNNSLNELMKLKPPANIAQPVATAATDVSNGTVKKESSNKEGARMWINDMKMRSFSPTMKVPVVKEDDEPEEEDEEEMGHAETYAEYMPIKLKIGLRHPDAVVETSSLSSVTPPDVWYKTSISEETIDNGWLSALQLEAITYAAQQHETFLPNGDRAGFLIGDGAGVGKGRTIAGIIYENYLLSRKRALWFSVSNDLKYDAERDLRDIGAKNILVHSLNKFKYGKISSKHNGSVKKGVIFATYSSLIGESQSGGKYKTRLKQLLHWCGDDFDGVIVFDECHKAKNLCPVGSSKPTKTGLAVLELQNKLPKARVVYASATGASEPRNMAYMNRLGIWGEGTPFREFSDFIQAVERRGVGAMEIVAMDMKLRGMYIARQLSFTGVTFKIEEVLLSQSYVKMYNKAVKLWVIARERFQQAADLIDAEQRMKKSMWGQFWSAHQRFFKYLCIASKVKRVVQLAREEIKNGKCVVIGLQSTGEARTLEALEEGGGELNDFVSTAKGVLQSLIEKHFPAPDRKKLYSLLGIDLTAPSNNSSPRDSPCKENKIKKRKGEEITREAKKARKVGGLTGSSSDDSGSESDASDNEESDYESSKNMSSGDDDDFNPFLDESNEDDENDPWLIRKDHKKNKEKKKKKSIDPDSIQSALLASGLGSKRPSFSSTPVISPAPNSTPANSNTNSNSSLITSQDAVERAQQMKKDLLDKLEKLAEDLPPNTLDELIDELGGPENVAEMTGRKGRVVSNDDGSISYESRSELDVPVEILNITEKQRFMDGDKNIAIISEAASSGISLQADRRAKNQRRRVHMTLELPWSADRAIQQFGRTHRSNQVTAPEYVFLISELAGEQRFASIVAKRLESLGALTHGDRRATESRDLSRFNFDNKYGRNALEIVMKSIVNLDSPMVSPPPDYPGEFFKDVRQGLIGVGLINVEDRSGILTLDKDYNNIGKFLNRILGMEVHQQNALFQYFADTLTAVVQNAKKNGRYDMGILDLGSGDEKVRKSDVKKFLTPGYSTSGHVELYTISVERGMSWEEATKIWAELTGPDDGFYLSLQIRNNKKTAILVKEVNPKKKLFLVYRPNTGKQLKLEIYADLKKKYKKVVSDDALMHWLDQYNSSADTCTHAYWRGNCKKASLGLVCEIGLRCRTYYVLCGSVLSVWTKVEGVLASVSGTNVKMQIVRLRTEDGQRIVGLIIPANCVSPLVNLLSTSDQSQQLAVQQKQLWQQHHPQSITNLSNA
UniProt Q9NSI8: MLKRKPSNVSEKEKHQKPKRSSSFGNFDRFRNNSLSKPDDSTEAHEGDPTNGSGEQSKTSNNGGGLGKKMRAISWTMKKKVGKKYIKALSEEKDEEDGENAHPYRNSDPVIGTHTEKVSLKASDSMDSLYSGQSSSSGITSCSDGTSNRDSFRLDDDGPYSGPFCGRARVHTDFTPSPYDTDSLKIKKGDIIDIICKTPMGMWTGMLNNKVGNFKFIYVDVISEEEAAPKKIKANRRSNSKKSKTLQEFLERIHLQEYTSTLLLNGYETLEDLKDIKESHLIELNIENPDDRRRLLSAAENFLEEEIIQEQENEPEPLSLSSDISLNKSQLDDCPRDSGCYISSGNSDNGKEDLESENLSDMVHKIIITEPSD
UniProt Q9BRK5: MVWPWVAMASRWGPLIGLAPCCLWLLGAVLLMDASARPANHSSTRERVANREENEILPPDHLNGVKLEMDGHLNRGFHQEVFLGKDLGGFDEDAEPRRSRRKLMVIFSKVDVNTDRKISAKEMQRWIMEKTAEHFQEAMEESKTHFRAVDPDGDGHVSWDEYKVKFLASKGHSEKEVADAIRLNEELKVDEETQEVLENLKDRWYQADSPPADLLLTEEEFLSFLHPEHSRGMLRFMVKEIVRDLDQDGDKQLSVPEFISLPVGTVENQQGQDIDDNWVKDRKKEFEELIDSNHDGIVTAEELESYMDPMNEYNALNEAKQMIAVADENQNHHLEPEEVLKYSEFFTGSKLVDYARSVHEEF
UniProt O60613, whole entry, looked up: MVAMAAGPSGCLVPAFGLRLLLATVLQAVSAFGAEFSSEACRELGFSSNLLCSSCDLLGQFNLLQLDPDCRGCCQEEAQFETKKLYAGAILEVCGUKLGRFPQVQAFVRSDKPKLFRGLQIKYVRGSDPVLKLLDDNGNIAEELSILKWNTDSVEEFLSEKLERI
UniProt Q9HCN8: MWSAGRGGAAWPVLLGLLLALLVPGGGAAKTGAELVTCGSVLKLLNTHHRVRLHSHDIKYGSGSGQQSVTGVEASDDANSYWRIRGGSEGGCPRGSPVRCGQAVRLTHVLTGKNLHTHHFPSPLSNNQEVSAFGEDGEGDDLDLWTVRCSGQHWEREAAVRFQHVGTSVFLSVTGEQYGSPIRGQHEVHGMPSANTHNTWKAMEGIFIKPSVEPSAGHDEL
UniProt O43290: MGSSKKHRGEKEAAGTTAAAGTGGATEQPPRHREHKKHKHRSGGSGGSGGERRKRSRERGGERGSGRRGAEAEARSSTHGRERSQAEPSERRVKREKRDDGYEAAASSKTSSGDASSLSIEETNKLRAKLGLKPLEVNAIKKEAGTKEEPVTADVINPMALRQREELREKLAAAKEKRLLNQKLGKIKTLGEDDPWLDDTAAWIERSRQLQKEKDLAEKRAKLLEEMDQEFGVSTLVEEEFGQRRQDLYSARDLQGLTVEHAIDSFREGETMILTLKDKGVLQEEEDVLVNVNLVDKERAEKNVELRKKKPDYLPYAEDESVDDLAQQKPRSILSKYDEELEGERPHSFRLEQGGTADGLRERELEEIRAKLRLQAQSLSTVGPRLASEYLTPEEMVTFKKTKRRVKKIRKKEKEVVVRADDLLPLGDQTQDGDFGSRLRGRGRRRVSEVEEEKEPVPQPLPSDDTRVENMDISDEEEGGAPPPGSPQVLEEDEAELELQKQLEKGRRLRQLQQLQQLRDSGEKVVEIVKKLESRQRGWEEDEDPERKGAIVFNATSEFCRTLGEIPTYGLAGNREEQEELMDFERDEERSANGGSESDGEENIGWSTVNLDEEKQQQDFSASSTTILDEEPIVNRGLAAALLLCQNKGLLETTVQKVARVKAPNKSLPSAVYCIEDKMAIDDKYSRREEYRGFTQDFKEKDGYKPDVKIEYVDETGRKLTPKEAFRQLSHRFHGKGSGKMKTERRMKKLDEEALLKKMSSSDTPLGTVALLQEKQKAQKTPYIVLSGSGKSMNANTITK

Legend:
Experiment in all cases: log2 fold change, soluble protein after heating vs DMSO (PISA); higher = thermal stabilisation; K562 lysate, 10 uM; active = over 0.2 and 3.5 SD of the protein, either way, in both replicates (recomputed)
alvocidib = compound: CN1CC[C@H](c2c(O)cc(O)c3c(=O)cc(-c4ccccc4Cl)oc23)[C@H](O)C1 [alvocidib]
Method in brief: (§1)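 K562 pellets were dounce-homogenised in PBS pH 7.4 with 1 mM MgCl2, and the crude extract at 1 mg/mL protein was treated with 10 μM compound for 30 min. Aliquots were heated for 3 min across 48°C-58°C, pooled, and brought to 0.5% NP-40 at 4°C; soluble protein was the supernatant after 21,000xg for 90 min. Soluble protein was quantified by TMTpro 16plex LC-MS/MS with channel sums equalised, and reported as log2 fold change in thermal stability against DMSO controls, with values from duplicates.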

Tubastatin A = compound: CN1CCc2c(c3ccccc3n2Cc2ccc(C(=O)NO)cc2)C1 [Tubastatin A]
Method in brief: as §1

[1] = compound: CNC(=O)C1=CC=CC=C1NC2=NC(=NC=C2Cl)NC3=C(C=C(C=C3)N4CCOCC4)OC
Method in brief: as §1

defactinib = compound: CNC(=O)c1ccc(Nc2ncc(C(F)(F)F)c(NCc3nccnc3N(C)S(C)(=O)=O)n2)cc1 [defactinib]
Method in brief: as §1

[2] = compound: CNc1nc(-c2ccc3c(N)n[nH]c3c2)cc(N2C[C@@H](C(=O)NC3CCCCC3)CC[C@H]2C)n1
Method in brief: as §1

encorafenib = compound: COC(=O)N[C@@H](C)CNc1nccc(-c2cn(C(C)C)nc2-c2cc(Cl)cc(NS(C)(=O)=O)c2F)n1 [encorafenib]
Method in brief: as §1

[3] = compound: COC(=O)[C@H](CCSC)NC(=O)C1=C(C=C(C=C1)NC[C@H](CS)N)C2=CC=CC=C2
Method in brief: as §1

alisertib = compound: COc1cc(Nc2ncc3c(n2)-c2ccc(Cl)cc2C(c2c(F)cccc2OC)=NC3)ccc1C(=O)O [alisertib]
Method in brief: as §1

[4] = compound: COc1cc2nc(-c3cc(F)ccc3O)nc(N[C@@H]3CNC[C@H]3C(C)(C)O)c2cc1OC
Method in brief: as §1

gefitinib = compound: COc1cc2ncnc(Nc3ccc(F)c(Cl)c3)c2cc1OCCCN1CCOCC1 [gefitinib]
Method in brief: as §1

lapatinib = compound: CS(=O)(=O)CCNCc1ccc(-c2ccc3ncnc(Nc4ccc(OCc5cccc(F)c5)c(Cl)c4)c3c2)o1 [lapatinib]
Method in brief: as §1

pictilisib = compound: CS(=O)(=O)N1CCN(Cc2cc3nc(-c4cccc5[nH]ncc45)nc(N4CCOCC4)c3s2)CC1 [pictilisib]
Method in brief: as §1

crizotinib = compound: C[C@@H](Oc1cc(-c2cnn(C3CCNCC3)c2)cnc1N)c1c(Cl)ccc(F)c1Cl [crizotinib]
Method in brief: as §1

[5] = compound: C[C@H](C1=CC=C(C=C1)C(=O)NC2=C3C=CNC3=NC=C2)N
Method in brief: as §1

duvelisib = compound: C[C@H](Nc1ncnc2nc[nH]c12)c1cc2cccc(Cl)c2c(=O)n1-c1ccccc1 [duvelisib]
Method in brief: as §1

gandotinib = compound: Cc1cc(Nc2cc(CN3CCOCC3)c3nc(C)c(Cc4ccc(Cl)cc4F)n3n2)n[nH]1 [gandotinib]
Method in brief: as §1

tozasertib = compound: Cc1cc(Nc2cc(N3CCN(C)CC3)nc(Sc3ccc(NC(=O)C4CC4)cc3)n2)n[nH]1 [tozasertib]
Method in brief: as §1

doramapimod = compound: Cc1ccc(-n2nc(C(C)(C)C)cc2NC(=O)Nc2ccc(OCCN3CCOCC3)c3ccccc23)cc1 [doramapimod]
Method in brief: as §1

bafetinib = compound: Cc1ccc(NC(=O)c2ccc(CN3CC[C@H](N(C)C)C3)c(C(F)(F)F)c2)cc1Nc1nccc(-c2cncnc2)n1 [bafetinib]
Method in brief: as §1

[6] = compound: Cc1cccc(CC(=O)N2CCc3c2ccc(-c2cn(C)c4ncnc(N)c24)c3F)n1
Method in brief: as §1

Target	log2 fold change (alvocidib)	log2 fold change (Tubastatin A)	log2 fold change [1]	log2 fold change (defactinib)	log2 fold change [2]	log2 fold change (encorafenib)	log2 fold change [3]	log2 fold change (alisertib)	log2 fold change [4]	log2 fold change (gefitinib)	log2 fold change (lapatinib)	log2 fold change (pictilisib)	log2 fold change (crizotinib)	log2 fold change [5]	log2 fold change (duvelisib)	log2 fold change (gandotinib)	log2 fold change (tozasertib)	log2 fold change (doramapimod)	log2 fold change (bafetinib)	log2 fold change [6]
SCD (UniProt O00767)	inactive: -0.138	inactive: -0.015	inactive: -0.014	inactive: -0.02	inactive: -0.091	inactive: -0.097	inactive: 0.076	inactive: 0.006	inactive: 0.004	inactive: 0.011	inactive: 0.059	inactive: 0	inactive: -0.08	active: -0.443	inactive: 0.067	inactive: 0.155	inactive: 0.065	inactive: 0.077	inactive: -0.053	inactive: 0.273
SCLY (UniProt Q96I15)	inactive: 0.004	inactive: 0.014	inactive: -0.007	inactive: 0.027	inactive: -0.003	inactive: -0.022	inactive: 0.025	inactive: -0.007	inactive: -0.005	inactive: -0.002	inactive: 0.016	inactive: -0.033	inactive: -0.008	inactive: 0.002	inactive: -0.001	inactive: 0.072	inactive: 0.008	inactive: 0	inactive: 0.028	inactive: 0.041
SEC23A (UniProt Q15436)	inactive: -0.001	inactive: 0.009	inactive: 0.028	inactive: 0.017	inactive: 0.01	inactive: 0.013	inactive: 0.062	inactive: 0.008	inactive: -0.031	inactive: -0.007	inactive: 0.008	inactive: -0.015	inactive: -0.001	inactive: -0.033	inactive: -0.031	inactive: -0.081	inactive: -0.023	inactive: 0.006	inactive: -0.016	inactive: 0.017
SAMD4B (UniProt Q5PRF9)	inactive: -0.012	inactive: -0.053	inactive: 0.017	inactive: -0.004	inactive: 0.033	inactive: -0.021	inactive: 0.019	inactive: -0.037	inactive: 0.105	inactive: -0.003	inactive: 0	inactive: -0.015	inactive: -0.017	inactive: -0.1	inactive: 0.045	inactive: 0.002	inactive: 0.048	inactive: -0.001	inactive: 0.011	inactive: 0.1
SEC61B (UniProt P60468)	inactive: -0.059	inactive: 0.025	inactive: -0.033	inactive: -0.009	inactive: -0.112	inactive: 0.031	inactive: -0.063	inactive: -0.007	inactive: 0.001	inactive: 0.076	inactive: 0.028	inactive: 0.069	inactive: 0.091	inactive: -0.037	inactive: 0.007	inactive: 0.001	inactive: 0.053	inactive: 0.043	inactive: 0.015	inactive: 0.036
SCFD2 (UniProt Q8WU76)	inactive: -0.067	inactive: 0.016	inactive: 0.015	inactive: 0.005	inactive: -0.017	inactive: 0.075	inactive: 0.073	inactive: -0.03	inactive: 0.022	inactive: -0.062	inactive: -0.013	inactive: -0.004	inactive: -0.095	inactive: -0.011	inactive: 0.015	inactive: -0.026	inactive: 0.081	inactive: -0.007	inactive: 0.014	inactive: 0.022
SEPTIN11 isoform 2 (UniProt Q9NVA2)	inactive: -0.007	inactive: 0.04	inactive: -0.015	inactive: 0	inactive: 0.007	inactive: -0.018	inactive: -0.012	inactive: 0	inactive: -0.006	inactive: -0.012	inactive: 0.017	inactive: 0.006	inactive: 0.044	inactive: 0.01	inactive: 0.03	inactive: 0	inactive: -0.021	inactive: -0.015	inactive: 0.037	inactive: -0.026
SELENBP1 isoform 4 (UniProt Q13228)	inactive: 0.006	inactive: 0.024	inactive: -0.008	inactive: 0.023	inactive: 0.017	inactive: -0.016	inactive: -0.017	inactive: -0.013	inactive: 0.01	inactive: 0.005	inactive: -0.019	inactive: -0.018	inactive: 0.034	inactive: 0.026	inactive: 0.029	inactive: 0.008	inactive: -0.037	inactive: -0.025	inactive: 0.031	inactive: -0.019
SEC24B isoform 3 (UniProt O95487)	inactive: 0.071	inactive: -0.032	inactive: 0.044	inactive: 0.026	inactive: 0.006	inactive: 0.058	inactive: -0.011	inactive: -0.02	inactive: 0.024	inactive: -0.016	inactive: -0.018	inactive: -0.037	inactive: -0.027	inactive: 0.173	inactive: -0.019	inactive: -0.173	inactive: -0.038	inactive: -0.006	inactive: -0.032	inactive: -0.081
SBNO1 (UniProt A3KN83)	inactive: -0.01	inactive: 0.01	inactive: 0.017	inactive: -0.002	inactive: 0.002	inactive: 0.015	inactive: 0	inactive: -0.008	inactive: -0.006	inactive: 0.003	inactive: 0.007	inactive: -0.008	inactive: -0.025	inactive: -0.012	inactive: 0.01	inactive: 0.021	inactive: 0.004	inactive: 0.041	inactive: -0.016	inactive: 0.036
SAMSN1 (UniProt Q9NSI8)	inactive: -0.029	inactive: 0.031	inactive: 0.001	inactive: -0.006	inactive: -0.025	inactive: 0.009	inactive: -0.005	inactive: 0.029	inactive: -0.01	inactive: 0.039	inactive: 0.002	inactive: 0.014	inactive: -0.004	inactive: -0.034	inactive: 0.002	inactive: 0.048	inactive: 0.016	inactive: 0.024	inactive: -0.025	inactive: 0.057
SDF4 (UniProt Q9BRK5)	inactive: 0.036	inactive: -0.002	inactive: -0.001	inactive: 0.012	inactive: -0.078	inactive: -0.015	inactive: -0.022	inactive: -0.018	inactive: 0.011	inactive: -0.01	inactive: -0.005	inactive: 0.003	inactive: 0	inactive: 0.084	inactive: 0.009	inactive: -0.021	inactive: 0.001	inactive: -0.034	inactive: -0.027	inactive: -0.05
SELENOF (UniProt O60613)	inactive: 0.041	inactive: 0.062	inactive: -0.011	inactive: 0.066	inactive: 0.059	inactive: -0.089	inactive: 0.051	inactive: -0.014	inactive: 0.027	inactive: -0.039	inactive: -0.013	inactive: 0.025	inactive: 0	inactive: 0.016	inactive: 0.02	inactive: 0.017	inactive: -0.023	inactive: -0.002	inactive: -0.052	inactive: -0.031
SDF2L1 (UniProt Q9HCN8)	inactive: 0.004	inactive: 0.03	inactive: 0.009	inactive: -0.005	inactive: 0.032	inactive: 0.026	inactive: -0.04	inactive: 0.055	inactive: -0.007	inactive: -0.025	inactive: -0.03	inactive: 0.015	inactive: 0.031	inactive: -0.147	inactive: -0.016	inactive: 0.091	inactive: -0.014	inactive: -0.023	inactive: -0.028	inactive: -0.011
SDCCAG8 (UniProt Q86SQ7)	inactive: 0.019	inactive: -0.012	inactive: -0.013	inactive: 0.03	inactive: 0.059	inactive: 0.069	inactive: -0.067	inactive: -0.022	inactive: 0.019	inactive: 0.027	inactive: -0.03	inactive: 0.004	inactive: -0.03	inactive: -0.049	inactive: 0.041	inactive: 0.011	inactive: 0.036	inactive: 0.029	inactive: 0.01	inactive: 0.036
SART1 (UniProt O43290)	inactive: 0.004	inactive: -0.001	inactive: 0.017	inactive: 0.029	inactive: 0.033	inactive: 0.032	inactive: -0.022	inactive: -0.003	inactive: -0.026	inactive: -0.047	inactive: 0.014	inactive: 0.015	inactive: 0	inactive: -0.024	inactive: 0	inactive: 0.025	inactive: -0.016	inactive: 0.02	inactive: -0.046	inactive: 0.029

A section of the results above:
Target	log2 fold change (alvocidib)	log2 fold change (Tubastatin A)	log2 fold change [1]	log2 fold change (defactinib)	log2 fold change [2]	log2 fold change (encorafenib)	log2 fold change [3]	log2 fold change (alisertib)	log2 fold change [4]	log2 fold change (gefitinib)	log2 fold change (lapatinib)	log2 fold change (pictilisib)	log2 fold change (crizotinib)	log2 fold change [5]	log2 fold change (duvelisib)	log2 fold change (gandotinib)	log2 fold change (tozasertib)	log2 fold change (doramapimod)	log2 fold change (bafetinib)	log2 fold change [6]
SDF2L1 (UniProt Q9HCN8)	inactive: 0.004	inactive: 0.03	inactive: 0.009	inactive: -0.005	inactive: 0.032	inactive: 0.026	inactive: -0.04	inactive: 0.055	inactive: -0.007	inactive: -0.025	inactive: -0.03	inactive: 0.015	inactive: 0.031	inactive: -0.147	inactive: -0.016	inactive: 0.091	inactive: -0.014	inactive: -0.023	inactive: -0.028	inactive: -0.011
SDCCAG8 (UniProt Q86SQ7)	inactive: 0.019	inactive: -0.012	inactive: -0.013	inactive: 0.03	inactive: 0.059	inactive: 0.069	inactive: -0.067	inactive: -0.022	inactive: 0.019	inactive: 0.027	inactive: -0.03	inactive: 0.004	inactive: -0.03	inactive: -0.049	inactive: 0.041	inactive: 0.011	inactive: 0.036	inactive: 0.029	inactive: 0.01	inactive: 0.036
